Experimental data published in publication PMC5241209, “Identification and functional analysis of c.422_423InsT, a novel mutation of the HNF1A gene in a patient with diabetes”.

Protein sequences, listed by entry. Tags and fused reporters are not part of them. Lines headed by an entry give the natural chain unless they say otherwise; changes in a name come on top.
UniProt P20823: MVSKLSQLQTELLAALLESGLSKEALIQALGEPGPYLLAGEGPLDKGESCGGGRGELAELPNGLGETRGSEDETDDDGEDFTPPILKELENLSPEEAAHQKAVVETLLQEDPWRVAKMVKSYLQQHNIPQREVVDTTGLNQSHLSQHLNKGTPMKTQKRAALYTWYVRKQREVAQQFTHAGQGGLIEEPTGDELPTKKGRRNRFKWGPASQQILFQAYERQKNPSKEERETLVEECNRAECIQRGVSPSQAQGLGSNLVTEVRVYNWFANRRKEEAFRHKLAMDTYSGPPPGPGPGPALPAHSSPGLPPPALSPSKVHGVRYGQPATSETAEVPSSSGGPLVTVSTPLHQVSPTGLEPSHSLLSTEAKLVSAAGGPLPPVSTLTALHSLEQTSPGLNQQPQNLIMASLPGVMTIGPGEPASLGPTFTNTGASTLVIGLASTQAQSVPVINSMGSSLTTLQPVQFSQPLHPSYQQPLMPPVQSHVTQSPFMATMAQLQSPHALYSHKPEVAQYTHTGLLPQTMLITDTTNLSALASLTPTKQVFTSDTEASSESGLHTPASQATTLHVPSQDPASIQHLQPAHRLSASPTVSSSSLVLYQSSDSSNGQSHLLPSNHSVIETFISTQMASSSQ

Biological target: HNF1A Q141Hfs*47 (c.422_423InsT) (UniProt P20823)
Assay: EMSA
Conditions: two barely visible complexes, diminished by 300x unlabeled probe; 12 mM Hepes pH 7.9, 60 mM KCl, 10% glycerol, 1 mM EDTA, 1 mM MgCl2, 1 mM DTT plus DNA mix (1 mM spermidine, 1 mM MgCl2), 1 ug poly(dG/dC)·poly(dG-dC), 4 C; protein translated in vitro; residues 1-140; label: 32P 5' end (T4 PNK), unlabeled as competitor

“CTCAGTAAAGATTAACCAT (double strand) [GLUT2 promoter HNF1A site]”: binds more weakly.

The exact form of at least one protein or probe is not confirmed. Weaker means in comparison with the reference protein, sequence or condition of that experiment.
